These results are taken from the supplement of paper PMC6411743.

The chains behind the UniProt entries cited, without tags or fusion partners. Where a name states a change or a piece, a line headed by the entry shows the natural chain unless it says otherwise.
UniProt Q9P0L0: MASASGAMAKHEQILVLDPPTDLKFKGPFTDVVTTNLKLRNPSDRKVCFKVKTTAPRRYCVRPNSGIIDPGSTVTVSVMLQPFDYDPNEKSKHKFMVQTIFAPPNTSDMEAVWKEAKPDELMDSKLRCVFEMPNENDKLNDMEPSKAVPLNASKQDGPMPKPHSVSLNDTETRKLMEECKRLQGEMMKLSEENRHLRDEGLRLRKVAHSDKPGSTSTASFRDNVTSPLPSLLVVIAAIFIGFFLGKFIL
UniProt Q9ULM3: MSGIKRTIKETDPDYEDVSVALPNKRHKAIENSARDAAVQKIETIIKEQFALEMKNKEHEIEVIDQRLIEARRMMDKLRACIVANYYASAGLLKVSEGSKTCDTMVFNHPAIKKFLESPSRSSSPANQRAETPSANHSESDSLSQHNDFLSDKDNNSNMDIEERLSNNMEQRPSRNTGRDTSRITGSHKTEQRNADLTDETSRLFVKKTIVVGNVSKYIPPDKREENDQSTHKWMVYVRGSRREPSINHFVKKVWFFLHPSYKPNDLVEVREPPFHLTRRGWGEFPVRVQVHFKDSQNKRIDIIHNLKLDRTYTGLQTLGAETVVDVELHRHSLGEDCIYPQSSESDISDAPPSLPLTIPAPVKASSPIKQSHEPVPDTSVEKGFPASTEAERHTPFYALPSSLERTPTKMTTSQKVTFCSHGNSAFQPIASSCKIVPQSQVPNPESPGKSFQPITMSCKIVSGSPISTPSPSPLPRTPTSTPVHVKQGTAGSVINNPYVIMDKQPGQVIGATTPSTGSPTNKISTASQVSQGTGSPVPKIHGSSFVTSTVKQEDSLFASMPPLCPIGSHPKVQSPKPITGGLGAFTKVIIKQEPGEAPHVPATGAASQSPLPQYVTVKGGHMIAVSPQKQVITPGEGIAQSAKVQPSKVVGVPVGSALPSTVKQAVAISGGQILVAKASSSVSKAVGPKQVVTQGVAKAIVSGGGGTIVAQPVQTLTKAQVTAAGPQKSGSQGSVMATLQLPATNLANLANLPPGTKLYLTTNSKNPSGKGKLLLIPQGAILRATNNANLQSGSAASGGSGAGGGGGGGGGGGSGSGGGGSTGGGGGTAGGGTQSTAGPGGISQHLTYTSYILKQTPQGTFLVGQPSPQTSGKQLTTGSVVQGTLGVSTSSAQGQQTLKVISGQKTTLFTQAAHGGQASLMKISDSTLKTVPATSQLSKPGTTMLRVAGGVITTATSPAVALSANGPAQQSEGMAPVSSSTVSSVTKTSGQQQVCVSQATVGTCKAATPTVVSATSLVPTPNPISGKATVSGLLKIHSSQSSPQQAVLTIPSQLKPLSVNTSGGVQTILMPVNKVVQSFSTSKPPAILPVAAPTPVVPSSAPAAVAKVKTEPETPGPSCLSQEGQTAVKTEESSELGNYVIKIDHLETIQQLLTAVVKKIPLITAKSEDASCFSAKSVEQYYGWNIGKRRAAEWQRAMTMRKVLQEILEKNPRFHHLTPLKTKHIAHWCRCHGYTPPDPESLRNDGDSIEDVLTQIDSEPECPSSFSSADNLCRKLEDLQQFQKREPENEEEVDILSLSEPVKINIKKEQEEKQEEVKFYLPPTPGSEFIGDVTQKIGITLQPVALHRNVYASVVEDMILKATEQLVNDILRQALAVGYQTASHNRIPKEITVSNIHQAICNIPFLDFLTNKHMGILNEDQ
UniProt Q9NZB8: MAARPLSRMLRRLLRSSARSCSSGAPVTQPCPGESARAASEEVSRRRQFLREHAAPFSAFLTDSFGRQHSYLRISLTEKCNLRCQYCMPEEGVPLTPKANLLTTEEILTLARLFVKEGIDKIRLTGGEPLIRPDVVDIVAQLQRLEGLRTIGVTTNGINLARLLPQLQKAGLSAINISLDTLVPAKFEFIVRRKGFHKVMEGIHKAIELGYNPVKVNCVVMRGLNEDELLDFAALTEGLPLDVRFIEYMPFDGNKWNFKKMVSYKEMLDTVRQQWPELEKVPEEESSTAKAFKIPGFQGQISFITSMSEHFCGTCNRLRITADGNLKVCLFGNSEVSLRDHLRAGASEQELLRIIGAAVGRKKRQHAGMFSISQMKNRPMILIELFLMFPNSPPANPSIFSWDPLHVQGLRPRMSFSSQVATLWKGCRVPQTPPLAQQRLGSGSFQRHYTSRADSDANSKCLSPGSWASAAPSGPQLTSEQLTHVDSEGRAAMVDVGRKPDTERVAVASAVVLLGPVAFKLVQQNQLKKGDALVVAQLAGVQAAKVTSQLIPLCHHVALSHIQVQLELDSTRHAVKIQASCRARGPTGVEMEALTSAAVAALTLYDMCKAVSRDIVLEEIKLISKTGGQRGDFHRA

± gives the standard deviation of the averaged measurements. Some of the results follow.

Compound in this experiment: Nc1nc2c(ncn2[C@@H]2O[C@H](COP(=O)(O)OP(=O)(O)OP(=O)(O)O)[C@@H](O)[C@H]2O)c(=O)[nH]1 [guanosine triphosphate]
The experiment can be described thus: NP40-soluble protein abundance relative to vehicle (solubility fold change) (ratio); higher = more soluble protein in presence of GTP. How it is done: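 Solubility proteome profiling in Jurkat crude lysate. Lysate was treated with Mg-GTP (0.1-10 mM) for 10 min at room temperature and 3 min at 37 °C, then solubilised with 0.8% NP40 and benzonase, followed by ultracentrifugation. Proteins were quantified by TMT10 LC-MS/MS; the value is the NP40-soluble abundance relative to the NP40-processed vehicle, from 3 independent experiments.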

Regarding VAPA (UniProt Q9P0L0), the NP40-soluble protein abundance is, setting by setting: (concentration: 0.1mM) 0.9457 ± 0.0073; (concentration: 0.5mM) 0.957 ± 0.051; (concentration: 1mM) 0.98 ± 0.03; (concentration: 2mM) 0.951 ± 0.075; (concentration: 4mM) 0.929 ± 0.047; (concentration: 6mM) 0.965 ± 0.063. Moreover, the NP40-soluble protein abundance is 0.958 ± 0.03 (concentration: 8mM) and 0.956 ± 0.051 (concentration: 10mM).

For UniProt Q9UEW8 and related entries, the NP40-soluble protein abundance was 0.948 ± 0.026 (concentration: 0.1mM); 1 ± 0.035 (concentration: 0.5mM); 0.919 ± 0.041 (concentration: 1mM); 0.939 ± 0.041 (concentration: 2mM); 0.8758 ± 0.0044 (concentration: 4mM); 0.937 ± 0.013 (concentration: 6mM). In addition, the NP40-soluble protein abundance worked out at 0.863 ± 0.028 (concentration: 8mM) and 0.929 ± 0.06 (concentration: 10mM).

YEATS2 (UniProt Q9ULM3): the NP40-soluble protein abundance reads like this: (concentration: 0.1mM) 1.05 ± 0.057; (concentration: 0.5mM) 1.13 ± 0.1; (concentration: 1mM) 1.13 ± 0.2; (concentration: 2mM) 1.17 ± 0.29; (concentration: 4mM) 1.12 ± 0.2; (concentration: 6mM) 1.14 ± 0.2. Besides, the NP40-soluble protein abundance by setting is: (concentration: 8mM) 1.11 ± 0.17; (concentration: 10mM) 1.18 ± 0.23.

For the target UniProt Q9NZB8 and related entries, the NP40-soluble protein abundance runs as follows: (concentration: 0.1mM) 1.02 ± 0.035; (concentration: 0.5mM) 0.955 ± 0.062; (concentration: 1mM) 0.933 ± 0.0079; (concentration: 2mM) 0.946 ± 0.067; (concentration: 4mM) 0.894 ± 0.027; (concentration: 6mM) 0.915 ± 0.056. Also, the NP40-soluble protein abundance by setting is: (concentration: 8mM) 0.872 ± 0.017; (concentration: 10mM) 0.847 ± 0.067.

Consider UniProt Q9P2K3 and related entries, for which the NP40-soluble protein abundance (concentration: 0.1mM) came out at 1.01 ± 0.019; the NP40-soluble protein abundance (concentration: 0.5mM) stood at 1.018 ± 0.01; the NP40-soluble protein abundance (concentration: 1mM) worked out at 1.08 ± 0.09; the NP40-soluble protein abundance (concentration: 2mM) turned out to be 1.09 ± 0.077; the NP40-soluble protein abundance (concentration: 4mM) was 1.1 ± 0.1; the NP40-soluble protein abundance (concentration: 6mM) was 1.14 ± 0.1. Further, the NP40-soluble protein abundance was 1.19 ± 0.16 (concentration: 8mM) and 1.2 ± 0.18 (concentration: 10mM).
